Earlier results in patent US20110224197A1, “PYRIMIDINES AND PYRIDINES USEFUL AS INHIBITORS OF PROTEIN KINASES” (Vertex Pharmaceuticals Incorporated, priority 2008, published 2011).
For at least one compound, name, drawing or mass did not settle the structure.

System: Mice over-expressing amyloid precursor protein (APP)
Conditions: treated over a three-week period; cited from earlier work

In the case of `[Li]` [lithium], the “decrease in amyloid-β peptide tissue levels” value is listed as over 50%.
